Data as given in PubChem BioAssay AID1259424 (University of Nebraska Medical Center, 2018).
This is a random part of about 14,000 reagents. 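Higher correlation or smaller distance means closer resemblance to KSR1 loss; control wells, including KSR1 knockdowns, recur on many plates.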 Reagents against one gene are numbered here. The record does not give: the time to read-out.

- Assay: 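Find knockdowns that reproduce the expression shifts seen after KSR1 loss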 (primary screen)
- Cell system: human HCT116 colon cancer cells
- Reagent: siRNA pool against human genes, 50 nM
- Measurement: 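Log2 levels of six mRNAs (branched-DNA multiplex), adjusted by two reference genes and the non-targeting median, then scored against the average KSR1 knockdown pattern as Pearson r and euclidean distance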
- Reading the numbers: mean correlation with KSR1 profile and KSR1 correlation: higher = expression change more like KSR1 knockdown; mean distance from KSR1 profile: higher = expression change less like KSR1 knockdown

The first 6 entries, to show the layout:
| gene | reagent | mean correlation with KSR1 profile | mean distance from KSR1 profile | KSR1 correlation, replicate 1 | KSR1 correlation, replicate 2 | KSR1 correlation, replicate 3 |
| --- | --- | --- | --- | --- | --- | --- |
| ZNF345 (GeneID 25850) | 1 | 0.0215 | 1.61 | -0.0505 | 0.00706 | -0.108 |
| UBE2I (GeneID 7329) | 1 | -0.00123 | 3.56 | 0.095 | -0.0699 | -0.202 |
| UBE4A (GeneID 9354) | 1 | -0.721 | 1.86 | -0.722 | -0.777 | -0.523 |
| EYA2 (GeneID 2139) | 1 | -0.382 | 2.04 | -0.48 | -0.155 | -0.446 |
| LLGL1 (GeneID 3996) | 1 | 0.337 | 1.78 | 0.411 | 0.366 | 0.491 |
| ADAMTSL2 (GeneID 9719) | 1 | -0.303 | 2.69 | -0.0734 | -0.554 | -0.581 |

The listing, repeating the preview:
| gene | reagent | mean correlation with KSR1 profile | mean distance from KSR1 profile | KSR1 correlation, replicate 1 | KSR1 correlation, replicate 2 | KSR1 correlation, replicate 3 |
| --- | --- | --- | --- | --- | --- | --- |
| ZNF345 (GeneID 25850) | 1 | 0.0215 | 1.61 | -0.0505 | 0.00706 | -0.108 |
| UBE2I (GeneID 7329) | 1 | -0.00123 | 3.56 | 0.095 | -0.0699 | -0.202 |
| UBE4A (GeneID 9354) | 1 | -0.721 | 1.86 | -0.722 | -0.777 | -0.523 |
| EYA2 (GeneID 2139) | 1 | -0.382 | 2.04 | -0.48 | -0.155 | -0.446 |
| LLGL1 (GeneID 3996) | 1 | 0.337 | 1.78 | 0.411 | 0.366 | 0.491 |
| ADAMTSL2 (GeneID 9719) | 1 | -0.303 | 2.69 | -0.0734 | -0.554 | -0.581 |
| CDK5R2 (GeneID 8941) | 1 | 0.42 | 1.2 | 0.425 | -0.401 | -0.279 |
| ARHGAP29 (GeneID 9411) | 1 | -0.202 | 2.18 | -0.208 | -0.103 | -0.291 |
| RNASE2 (GeneID 6036) | 1 | 0.3 | 2.46 | 0.186 | 0.217 | 0.422 |
| THOC3 (GeneID 84321) | 1 | 0.171 | 1.84 | 0.0451 | 0.0872 | 0.192 |
| INHBE (GeneID 83729) | 1 | 0.493 | 1.96 | 0.43 | 0.157 | 0.589 |
| CDK17 (GeneID 5128) | 1 | -0.182 | 1.7 | 0.0767 | -0.0365 | -0.677 |
| GHR (GeneID 2690) | 1 | -0.504 | 1.61 | -0.665 | -0.242 | -0.627 |
| RAB32 (GeneID 10981) | 1 | 0.505 | 1.88 | 0.409 | 0.572 | 0.63 |
| LYZL6 (GeneID 57151) | 1 | -0.726 | 3.09 | -0.641 | -0.641 | -0.704 |
| VPS26C (GeneID 10311) | 1 | 0.101 | 0.984 | 0.115 | 0.124 | 0.0473 |
| ELP2 (GeneID 55250) | 1 | -0.451 | 2.14 | -0.44 | -0.527 | -0.156 |
| KLHL5 (GeneID 51088) | 1 | 0.0442 | 2.49 | -0.0554 | 0.135 | 0.022 |
| RHBDD3 (GeneID 25807) | 1 | -0.521 | 3.54 | -0.316 | -0.565 | -0.576 |
| PHF8 (GeneID 23133) | 1 | -0.17 | 2.63 | -0.141 | -0.137 | -0.152 |
| TCEA1 (GeneID 6917) | 1 | -0.309 | 2.14 | -0.031 | 0.0816 | -0.504 |
| CNRIP1 (GeneID 25927) | 1 | 0.0897 | 1.52 | 0.223 | -0.0297 | 0.0579 |
| MAPK8IP3 (GeneID 23162) | 1 | 0.538 | 2.33 | 0.804 | 0.588 | 0.184 |
| GOLPH3L (GeneID 55204) | 1 | 0.468 | 2.36 | 0.461 | 0.259 | 0.367 |
| EEA1 (GeneID 8411) | 1 | -0.542 | 1.85 | -0.395 | -0.74 | -0.5 |
| SYT16 (GeneID 83851) | 1 | 0.539 | 2.05 | 0.26 | 0.507 | 0.521 |
| SLC9A3-OT1 (GeneID 25845) | 1 | -0.283 | 1.49 | -0.224 | -0.302 | -0.421 |
| NFKBIB (GeneID 4793) | 1 | -0.199 | 1.63 | 0.0951 | -0.17 | -0.299 |
| PPP2R1B (GeneID 5519) | 1 | -0.123 | 1.1 | -0.000518 | -0.448 | 0.0342 |
| UGT1A5 (GeneID 54579) | 1 | 0.632 | 2.29 | 0.616 | 0.672 | 0.703 |
| PTCD3 (GeneID 55037) | 1 | -0.0124 | 2.19 | 0.0461 | -0.141 | -0.00615 |
| INPP5K (GeneID 51763) | 1 | -0.0298 | 1.95 | 0.399 | 0.0433 | 0.141 |
| NHP2 (GeneID 55651) | 1 | -0.498 | 6.28 | -0.341 | -0.162 | -0.786 |
| MRPL32 (GeneID 64983) | 1 | -0.227 | 1.97 | 0.0242 | -0.435 | -0.274 |
| TMEM97 (GeneID 27346) | 1 | -0.438 | 2.05 | -0.682 | -0.44 | -0.662 |
| PDGFB (GeneID 5155) | 1 | -0.592 | 1.76 | -0.37 | -0.482 | -0.593 |
| LRMDA (GeneID 83938) | 1 | 0.547 | 1.81 | 0.395 | 0.509 | 0.438 |
| DDX3Y (GeneID 8653) | 1 | 0.138 | 1.24 | -0.033 | -0.043 | 0.168 |
| H1-3 (GeneID 3007) | 1 | 0.248 | 1.02 | -0.164 | 0.187 | 0.359 |
| FCN3 (GeneID 8547) | 1 | -0.694 | 2.83 | -0.572 | -0.76 | -0.664 |
| PPIA (GeneID 5478) | 1 | -0.326 | 0.962 | -0.42 | 0.676 | -0.552 |
| IER3 (GeneID 8870) | 1 | 0.0311 | 3.24 | -0.22 | 0.15 | -0.147 |
| RALY (GeneID 22913) | 1 | -0.355 | 2.81 | -0.313 | -0.287 | -0.376 |
| PCDHB4 (GeneID 56131) | 1 | 0.667 | 2.15 | 0.497 | 0.619 | 0.726 |
| LRRC3 (GeneID 81543) | 1 | 0.27 | 2.63 | -0.0263 | 0.295 | 0.334 |
| LRRC3 (GeneID 81543) | 2 | -0.882 | 5.16 | -0.902 | -0.626 | -0.497 |
| RGCC (GeneID 28984) | 1 | -0.251 | 1.76 | -0.0483 | -0.254 | -0.0824 |
| NLRP13 (GeneID 126204) | 1 | -0.325 | 1.86 | -0.24 | -0.272 | -0.632 |
| CAPRIN1 (GeneID 4076) | 1 | -0.623 | 2.93 | -0.636 | -0.742 | -0.646 |
| ELANE (GeneID 1991) | 1 | -0.261 | 1.47 | -0.162 | 0.586 | -0.335 |
| EHD3 (GeneID 30845) | 1 | 0.00159 | 1.91 | -0.334 | 0.0102 | -0.383 |
| MIS18A (GeneID 54069) | 1 | 0.212 | 3.37 | 0.364 | 0.234 | 0.2 |
| PSMD13 (GeneID 5719) | 1 | -0.742 | 3.25 | -0.621 | -0.72 | -0.778 |
| MYO7B (GeneID 4648) | 1 | 0.271 | 0.787 | 0.558 | -0.0737 | 0.208 |
| HMGB2 (GeneID 3148) | 1 | -0.578 | 2.34 | -0.761 | -0.723 | -0.541 |
| UBE2Q1 (GeneID 55585) | 1 | 0.314 | 2.84 | 0.35 | 0.191 | 0.338 |
| TMEM187 (GeneID 8269) | 1 | -0.229 | 3.57 | -0.00411 | -0.273 | -0.313 |
| DNASE2B (GeneID 58511) | 1 | -0.262 | 2.11 | -0.308 | -0.282 | -0.347 |
| HTR7 (GeneID 3363) | 1 | 0.697 | 1.25 | 0.481 | 0.703 | 0.777 |
| HPCAL4 (GeneID 51440) | 1 | -0.683 | 3.17 | -0.712 | -0.5 | -0.612 |
| SP140 (GeneID 11262) | 1 | -0.482 | 3.08 | -0.447 | -0.143 | -0.461 |
| CCNJL (GeneID 79616) | 1 | -0.488 | 3.89 | -0.17 | -0.573 | -0.851 |
| REL (GeneID 5966) | 1 | -0.175 | 1.14 | -0.119 | -0.127 | -0.107 |
